This continues a long series; more values of the same kind are listed elsewhere.
Columns and labels:
Format in all cases: cell-based
Settings in all cases: U-87MG ATCC
[1] = Inhibition of RTK/PI3K/AKT/mTOR signaling in human U87 cells assessed as down regulation of KIF1B gene expression at cytotoxic IC50 measured after 48 hrs relative to control
[2] = Inhibition of RTK/PI3K/AKT/mTOR signaling in human U87 cells assessed as up regulation of ATP binding cassette subfamily A member 2 gene expression at cytotoxic IC50 measured after 48 hrs relative to control
[3] = Inhibition of RTK/PI3K/AKT/mTOR signaling in human U87 cells assessed as down regulation of PPP2R5D gene expression at cytotoxic IC50 measured after 48 hrs relative to control
[4] = Inhibition of RTK/PI3K/AKT/mTOR signaling in human U87 cells assessed as up regulation of long intergenic non-protein coding RNA 857 gene expression at cytotoxic IC50 measured after 48 hrs relative to control
[5] = Inhibition of RTK/PI3K/AKT/mTOR signaling in human U87 cells assessed as down regulation of SNHG3 gene expression at cytotoxic IC50 measured after 48 hrs relative to control
[6] = Inhibition of RTK/PI3K/AKT/mTOR signaling in human U87 cells assessed as down regulation of KIAA0513 gene expression at cytotoxic IC50 measured after 48 hrs relative to control
[7] = Inhibition of RTK/PI3K/AKT/mTOR signaling in human U87 cells assessed as up regulation of collagen type IX alpha 3 chain gene expression at cytotoxic IC50 measured after 48 hrs relative to control
[8] = Inhibition of RTK/PI3K/AKT/mTOR signaling in human U87 cells assessed as up regulation of SPTBN5 gene expression at cytotoxic IC50 measured after 48 hrs relative to control
[9] = Inhibition of RTK/PI3K/AKT/mTOR signaling in human U87 cells assessed as up regulation of serum/glucocorticoid regulated kinase family member 3 gene expression at cytotoxic IC50 measured after 48 hrs relative to control
[10] = Inhibition of RTK/PI3K/AKT/mTOR signaling in human U87 cells assessed as up regulation of RNA polymerase III subunit H gene expression at cytotoxic IC50 measured after 48 hrs relative to control
[11] = Inhibition of RTK/PI3K/AKT/mTOR signaling in human U87 cells assessed as down regulation of CHUK gene expression at cytotoxic IC50 measured after 48 hrs relative to control
[12] = Inhibition of RTK/PI3K/AKT/mTOR signaling in human U87 cells assessed as down regulation of TXNL4B gene expression at cytotoxic IC50 measured after 48 hrs relative to control
[13] = Inhibition of RTK/PI3K/AKT/mTOR signaling in human U87 cells assessed as up regulation of DNA damage regulated autophagy modulator 1 gene expression at cytotoxic IC50 measured after 48 hrs relative to control
[14] = Inhibition of RTK/PI3K/AKT/mTOR signaling in human U87 cells assessed as up regulation of RCOR2 gene expression at cytotoxic IC50 measured after 48 hrs relative to control
[15] = Inhibition of RTK/PI3K/AKT/mTOR signaling in human U87 cells assessed as down regulation of CENPW gene expression at cytotoxic IC50 measured after 48 hrs relative to control
[16] = Inhibition of RTK/PI3K/AKT/mTOR signaling in human U87 cells assessed as down regulation of CHAF1B gene expression at cytotoxic IC50 measured after 48 hrs relative to control
[17] = Inhibition of RTK/PI3K/AKT/mTOR signaling in human U87 cells assessed as up regulation of GID complex subunit 4 homolog gene expression at cytotoxic IC50 measured after 48 hrs relative to control
[18] = Inhibition of RTK/PI3K/AKT/mTOR signaling in human U87 cells assessed as down regulation of POLB gene expression at cytotoxic IC50 measured after 48 hrs relative to control
[19] = Inhibition of RTK/PI3K/AKT/mTOR signaling in human U87 cells assessed as up regulation of selenoprotein F gene expression at cytotoxic IC50 measured after 48 hrs relative to control
[20] = Inhibition of RTK/PI3K/AKT/mTOR signaling in human U87 cells assessed as up regulation of MYO18A gene expression at cytotoxic IC50 measured after 48 hrs relative to control
[21] = Inhibition of RTK/PI3K/AKT/mTOR signaling in human U87 cells assessed as down regulation of RNF10 gene expression at cytotoxic IC50 measured after 48 hrs relative to control
[22] = Inhibition of RTK/PI3K/AKT/mTOR signaling in human U87 cells assessed as down regulation of AP4B1 gene expression at cytotoxic IC50 measured after 48 hrs relative to control
[23] = Inhibition of RTK/PI3K/AKT/mTOR signaling in human U87 cells assessed as down regulation of LRRCC1 gene expression at cytotoxic IC50 measured after 48 hrs relative to control
[24] = Inhibition of RTK/PI3K/AKT/mTOR signaling in human U87 cells assessed as down regulation of KPNA4 gene expression at cytotoxic IC50 measured after 48 hrs relative to control
[25] = Inhibition of RTK/PI3K/AKT/mTOR signaling in human U87 cells assessed as down regulation of SERPINI1 gene expression at cytotoxic IC50 measured after 48 hrs relative to control
[26] = Inhibition of RTK/PI3K/AKT/mTOR signaling in human U87 cells assessed as down regulation of RAB3GAP2 gene expression at cytotoxic IC50 measured after 48 hrs relative to control
[27] = Inhibition of RTK/PI3K/AKT/mTOR signaling in human U87 cells assessed as up regulation of SNCG gene expression at cytotoxic IC50 measured after 48 hrs relative to control
[28] = Inhibition of RTK/PI3K/AKT/mTOR signaling in human U87 cells assessed as down regulation of TATDN3 gene expression at cytotoxic IC50 measured after 48 hrs relative to control
[29] = Inhibition of RTK/PI3K/AKT/mTOR signaling in human U87 cells assessed as up regulation of signal sequence receptor subunit 2 gene expression at cytotoxic IC50 measured after 48 hrs relative to control
[30] = Inhibition of RTK/PI3K/AKT/mTOR signaling in human U87 cells assessed as down regulation of NCAPG gene expression at cytotoxic IC50 measured after 48 hrs relative to control
[31] = Inhibition of RTK/PI3K/AKT/mTOR signaling in human U87 cells assessed as down regulation of SAMHD1 gene expression at cytotoxic IC50 measured after 48 hrs relative to control
[32] = Inhibition of RTK/PI3K/AKT/mTOR signaling in human U87 cells assessed as down regulation of OGDH gene expression at cytotoxic IC50 measured after 48 hrs relative to control

SMILES: CC(=O)C(=NNc1ccccc1C#N)C(C)=O
- log2FC [1]: -0.898
- log2FC [2]: 1.26
- log2FC [3]: -0.627
- log2FC [4]: 1.37
- log2FC [5]: -1.49
- log2FC [6]: -1.6
- log2FC [7]: 1.51
- log2FC [8]: 3.23
- log2FC [9]: 1.38
- log2FC [10]: 1.09
- log2FC [11]: -1.1
- log2FC [12]: -0.868
- log2FC [13]: 0.932
- log2FC [14]: 1.82
- log2FC [15]: -1.33
- log2FC [16]: -1.06
- log2FC [17]: 0.859
- log2FC [18]: -0.827
- log2FC [19]: 0.875
- log2FC [20]: 0.521
- log2FC [21]: -0.724
- log2FC [22]: -1.73
- log2FC [23]: -2.05
- log2FC [24]: -1.19
- log2FC [25]: -2.65
- log2FC [26]: -0.753
- log2FC [27]: 1.6
- log2FC [28]: -1.15
- log2FC [29]: 0.754
- log2FC [30]: -1.04
- log2FC [31]: -1.25
- log2FC [32]: -0.668
